Measurements taken from PubChem BioAssay AID493014 (National Center for Advancing Translational Sciences (NCATS), 2011).
“And” between values parts separate entries of the source, which are not always exact repeats. Identical values can stand only once. The list shows a part of the results. These are further read-outs of the screen, such as a control signal, another cell line or another target. No call is given for them. The list favours compounds with an active or inconclusive main result. The note in brackets gives the kind of curve behind each potency; many fits are weak.

Experiment: qHTS Assay to Find Inhibitors of Chronic Active B-Cell Receptor Signaling
Conditions: ABC-DLBCL IkBa-CBG/CBR reporter, luminescence ratio (green luciferase fused to IkBa over red control in TMD8 lymphoma cells), 4 h
Summary of the method: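 Concentration-response series (up to 46 uM) were applied to TMD8 dual-reporter cells for 4 h at 37C with doxycycline. Green/red ratio, after filter-overlap correction, defined %Activity; red signal alone was normalised to basal cells and zero luminescence.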

[1] = measured here: CBR red luminescence, cell number
[2] = measured here: IkBa-CBG green luminescence

| SMILES | AC50 [1] | AC50 [2] |
| --- | --- | --- |
| COC(=O)c1ccc(COc2ccccc2/C=C/C(=O)c2ccc(OCC(=O)O)cc2)cc1 | 2.82 µM [falling, full curve, poor fit] | – |
| N#CC/C(N)=N/Nc1nc2ccccc2nc1Cc1ccccc1 | 5.62 µM [falling, partial curve, poor fit] | – |
| O=C(Nc1cc(S(=O)(=O)N2CCCCC2)ccc1O)c1ccccc1NS(=O)(=O)c1ccc(F)cc1 | – | 20.6 µM [rising, partial curve, poor fit] |
| CC1CCCC(NC(=O)NC(=O)CCl)C1C (stereo not drawn) | 13 µM [falling, partial curve] | – |
| CN=C1S/C(=C\c2ccc(OCC(=O)OC)c(OC)c2)C(=O)N1C | 35.5 µM [falling, single point] | – |
| CCOC(=O)N1CCN(S(=O)(=O)c2ccc(C(=O)Nc3sc4c(c3C(N)=O)CCN(CC)C4)cc2)CC1 | 11.2 µM [rising, single point] | 35.5 µM [rising, partial curve, poor fit] |
| Cc1cc(C(=O)NC(C)Cc2ccccc2)cc(C)c1[N+](=O)[O-] (stereo not drawn) | 8.91 µM [rising, partial curve, poor fit] | – |
| Cn1c(CSCc2ccccc2)nnc1SCC(=O)Nc1nccs1 | 20.6 µM [falling, single point] | 4.61 µM [rising, partial curve, poor fit] |
| c1ccc(C2C3=C(Nc4ncnn42)c2ccccc2CCC3)cc1 (stereo not drawn) | 12.6 µM [falling, partial curve] | – |
| O=[N+]([O-])c1cccc(/C=N\N=C2c3ccccc3-c3ccccc32)c1O | 0.517 µM [rising, full curve, poor fit] | – |
| O=[N+]([O-])c1ccc(-n2nnnc2CN2CCCCC2)cc1 | 10 µM [falling, partial curve] | – |
| O=C(NCCc1ccccc1)c1cc(=O)[nH]c2ccccc12 | 10 µM [rising, partial curve, poor fit] | – |
| Cc1cc(C(=O)Nc2cccc3ccccc23)c(C)o1 | 35.5 µM [rising, single point] | – |
| CCOC1(c2ccccc2)OC(=O)c2ccccc21 (stereo not drawn) | 3.26 µM [rising, partial curve, poor fit] | – |
| COc1cc(Br)c(CNc2cc(C)ccc2C)cc1OC | 17.8 µM [falling, single point] | – |
| CC1=C(c2ccc(F)cc2)[N+](=O)C(C)(C)N1[O-] | 28.2 µM [falling, single point] | – |
| C=CCOc1c(Cl)cc(CNc2nccs2)cc1OC | 0.708 µM [rising, full curve] | – |
| CCCCOC(=O)c1ccc(Nc2ncnc3[nH]ncc23)cc1 | 11.2 µM [rising, partial curve] | – |
| COC(=O)c1ccccc1Sc1ncnc2onc(C)c12 | 17.8 µM [falling, single point] | – |
| CCn1c(=O)cc(SCC(=O)Nc2ccc3c(c2)OCCO3)c2ccccc21 | 22.4 µM [falling, single point] | – |
| Cc1ccc(NC(=O)/C=C/c2ccc([N+](=O)[O-])s2)cc1 | 0.461 µM [falling, full curve, poor fit] | – |

| SMILES | AC50 [1] | AC50 [2] |
| --- | --- | --- |
| Cc1ccc(S(=O)(=O)CNC(=S)c2cccc(C)c2)cc1 | – | 29.1 µM [falling, single point] |
| COc1cccc(NC(=O)C2CCN(S(=O)(=O)c3ccc4c(c3)NC(=O)C(C)S4)CC2)c1 (stereo not drawn) | 15.8 µM [falling, single point] | – |
| COCCN1C(=O)c2oc3c(C)cc(C)cc3c(=O)c2C1c1cccc(O)c1 (stereo not drawn) | 32.6 µM [falling, single point] | – |
| CCc1nnc2n1N=C(c1ccc(-c3cc(Cl)ccc3Cl)o1)CS2 | 22.4 µM [falling, single point] | – |
| c1ccc(-n2ncc3c(NCc4cccnc4)ncnc32)cc1 | 0.164 µM [rising, partial curve, poor fit] | – |
| O=C(Nc1ccccc1)Nc1ncc([N+](=O)[O-])s1 | 0.355 µM [falling, full curve] | – |
| CN(CC(=O)O/N=C(\N)c1ccc([N+](=O)[O-])cc1)S(=O)(=O)c1ccc2ccccc2c1 | 6.51 µM [rising, single point] | – |
| CC(=O)/C(=C/N(C)C)C(=O)Nc1ccc(Cl)cc1Cl | 31.6 µM [falling, single point] | – |
| CN1c2ccccc2C(O)=C(C(=S)Nc2ccc(F)c(Cl)c2)S1(=O)=O | 16.4 µM [falling, partial curve] | – |
| Cc1[nH]c(-c2ccc(F)cc2)cc1C(=O)N1CCN(c2ccc(Cl)cc2)CC1 | 35.5 µM [falling, partial curve, poor fit] | – |
| O=C(CN1CCC(NC(=O)c2ccco2)CC1)Nc1cccc2ccccc12 | 29.1 µM [rising, single point] | – |
| COc1ccc(CNC(=O)CSc2nn3c(=O)c(C(C)(C)C)nnc3s2)cc1OC | 35.5 µM [falling, partial curve, poor fit] | – |
| O=c1c2sc(-c3ccccc3)cc2nc2n1CCC2 | 10.3 µM [falling, partial curve] | – |
| O=C(CCSc1ccc(Br)cc1)c1ccc(O)cc1 | 35.5 µM [falling, single point] | – |
| Nc1cc(=O)[nH]c(SCC(=O)Nc2ccc(Cl)c(Cl)c2)n1 | 10.3 µM [rising, partial curve] | – |
| O=C(CN1CCCC1)Nc1ccc(Br)cc1[N+](=O)[O-] | 35.5 µM [rising, single point] | – |
| N#Cc1ccc(C2=NC(C(F)(F)F)(C(F)(F)F)c3c(n(Cc4ccco4)c(=O)[nH]c3=O)N2)cc1 | 7.94 µM [rising, partial curve, poor fit] | – |
| COc1ccc(CC2S/C(=N/N=C/c3ccccc3O)NC2=O)cc1 (stereo not drawn) | 1.58 µM [falling, full curve] | – |
| CC1=C(C(=O)Nc2ccccn2)C(c2ccc(N(C)C)cc2)n2ncnc2N1 (stereo not drawn) | 10 µM [rising, partial curve, poor fit] | – |
| O=C(Nc1ccccc1)Nc1ccccn1 | 14.1 µM [falling, single point] and 29.1 µM [falling, single point] | – |
| COCCn1c(C)cc(/C=C2/SC(=O)N(C(C)C(=O)OC)C2=O)c1C (stereo not drawn) | 15.8 µM [rising, single point] | 11.2 µM [falling, partial curve, poor fit] |

| SMILES | AC50 [1] | AC50 [2] |
| --- | --- | --- |
| CC(C)CNc1nc(Oc2ccc(=O)[nH]n2)nc(N2CCOCC2)n1 | 35.5 µM [falling, single point] | – |
| CCc1ccc(-c2ccc(C(=O)C(F)(F)F)[nH]2)cc1 | 1.41 µM [rising, full curve] | – |
| O=C(NCc1cc([N+](=O)[O-])ccc1O)c1cccnc1Sc1ccccc1Cl | 0.708 µM [falling, full curve] | – |
| CC(=O)Nc1cccc(Nc2nc(-c3ccccc3F)nc3ccccc23)c1 | 25.1 µM [falling, single point] | 12.6 µM [rising, partial curve, poor fit] |
| CCOC(=O)C1CCCN(C(=O)c2ccc3c(=O)n(CCOC)c(=S)[nH]c3c2)C1 (stereo not drawn) | 1.03 µM [falling, full curve] | – |
| O=C(CC1CCCC1)Nc1cccc(Br)c1 | 2.51 µM [rising, full curve, poor fit] | – |
| COC(=O)c1cccc(NC(=O)Cn2nnc3ccccc32)c1 | 15.8 µM [falling, single point] | – |
| CCCCCOC(=O)Cc1c(O)c2ccccc2n(C)c1=O | 12.6 µM [falling, single point] | – |
| Cc1ccc(N(CC(=O)NC2CCCCC2)C(=O)CNC(=O)c2cccs2)cc1 | 12.6 µM [falling, partial curve, poor fit] | – |
| O=C(O)CNC(=O)c1ccc(NC(=O)/C(=C/c2ccccc2)NC(=O)c2ccccc2Br)cc1 | 1 µM [falling, partial curve, poor fit] | – |
| COc1ccc(C(=O)OC(C)C(=O)NC2CCCc3ccccc32)cc1OC (stereo not drawn) | 29.1 µM [rising, single point] | – |
| S=c1[nH]nc(Nc2ccc(Cl)cc2)s1 | 1.78 µM [rising, single point] | – |
| CCOC(=O)c1[nH]c(C)c(CCC(=O)OC)c1C | 23.1 µM [rising, partial curve, poor fit] | 16.4 µM [falling, single point] |
| Cc1ccc(S(=O)(=O)N2CCCC2)cc1C(=O)NCC(C)(C)N1CCOCC1 | 25.9 µM [falling, single point] | – |
| O=C(O)C1CCCN1S(=O)(=O)c1ccc(Br)s1 (stereo not drawn) (tested in a mixture with another compound) | 0.092 µM [falling, full curve, poor fit] | – |
| COc1ccc2nc(Cl)c(C3CC(c4ccco4)=NN3C(=O)CCC(=O)O)cc2c1 (stereo not drawn) | 6.51 µM [rising, partial curve, poor fit] | – |
| CC(C)(C)C1=Nn2c(nnc2-c2n[nH]c3c2CCC3)SC1 | 0.411 µM [falling, full curve, poor fit] | – |
| COc1ccc(NC(=O)c2ccccc2SC)cc1 | 22.4 µM [falling, single point] | – |
| O=C1CC(SCc2nc3ccccc3[nH]2)C(=O)N1c1cccc(F)c1 (stereo not drawn) | 13 µM [falling, partial curve] | – |
| Cc1ccc(NC(=O)Cc2ccc(Cl)c(Cl)c2)cc1S(=O)(=O)N(C)C | 29.1 µM [falling, single point] | 29.1 µM [rising, single point] |
